Measured values from patent publication US9988644B2, “Compounds for improved viral transduction” (bluebird bio, Inc., priority 2011, dated 2018).
At least one compound was matched to its structure with a doubt left.

Tested on: CD34+ cells
Assay: 7-Day liquid culture, FACS for GFP after transduction with GFP+ lentivirus in presence of dmPGE2
Type: cell-based, human
Conditions: dmPGE2 25 uM during transduction; GFP MOI 25
Description: One vial of CD34+ cells (AllCells) were thawed by incubating at 37° C. for 1-2 minutes and contents were transferred to 10 mL Stem Cell Growth Media (hereafter referred to as SCGM) in a 15-mL conical tube. Cells were spun for 5 minutes at 1500 RPM in a standard tabletop centrifuge, resuspended in 10 mL SCGM and counted on a hemacytometer. A volume correlating with an appropriate number of cells was transferred to a fresh 15-mL conical tube, and again spun for 5 minutes at 1500 RPM. […]
Pre-stimulated cells (Example 1) were counted after 18-24 hours of culture. […]
Washed cells were resuspended in 200 uL SCGM+1× cytokines (as described in Example 1) and transferred to a standard 12-well non-adherent tissue culture plate containing an additional 800 uL SCGM+1× cytokines Cells were maintained for an additional 6 days in a standard humidified tissue culture incubator (5% CO2) and then subjected Vector Copy Number analysis (Example 5) and FACS analysis. […] The frequency of the virally-labeled cells within the pool of cultured cells was quantified as the frequency of GFP+ cells within the population. The mean fluorescence intensity of labeled cells was quantified.
Tables 3A-C indicate the dose-response of dmPGE2 in promoting viral transduction of CD34+ cells for three separate experiments. […] Cells were then washed and analyzed by flow cytometry and PCR after approximately 1 week in culture. […]

CCCCC(C)(C)[C@H](O)/C=C/[C@H]1[C@H](O)CC(=O)[C@@H]1C/C=C\CCCC(=O)O [dmPGE2, 16,16-dimethyl PGE2]
MFI (mean fluorescent intensity): 845,691,00
